Earlier results in patent publication US4812312A, “Liposome-incorporated nystatin” (Board of Regents of the University of Texas System, priority 1987, dated 1989).

Details: cited from earlier work

Q: Which solubility in water does the source give for C[C@@H]1[C@H](O)[C@@H](C)/C=C/C=C/C=C/C=C/C=C/C=C/C=C/[C@H](O[C@@H]2O[C@H](C)[C@@H](O)[C@H](N)[C@@H]2O)C[C@@H]2O[C@](O)(C[C@@H](O)C[C@@H](O)[C@H](O)CC[C@@H](O)C[C@@H](O)CC(=O)O[C@H]1C)C[C@H](O)[C@H]2C(=O)O [amphotericin B] here?
A: insoluble in water
